Experimental data from PMC5116172.
Results are given in words; binding and its absence hold for the method and conditions named. Some results given as binding are weak or reduced against the parent protein; the word gives no strength.

Protein sequences, listed by entry. Tags and fused reporters are not part of them. Residues count along the entry.
UniProt P07355: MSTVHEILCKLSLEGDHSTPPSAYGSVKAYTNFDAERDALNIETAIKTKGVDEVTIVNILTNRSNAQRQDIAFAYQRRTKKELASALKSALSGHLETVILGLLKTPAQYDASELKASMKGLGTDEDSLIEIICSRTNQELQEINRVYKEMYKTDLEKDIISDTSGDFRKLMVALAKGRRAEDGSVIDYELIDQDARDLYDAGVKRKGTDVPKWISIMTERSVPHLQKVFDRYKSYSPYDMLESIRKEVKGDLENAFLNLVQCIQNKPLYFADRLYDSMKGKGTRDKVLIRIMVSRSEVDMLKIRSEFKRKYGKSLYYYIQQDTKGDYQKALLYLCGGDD
UniProt P60903: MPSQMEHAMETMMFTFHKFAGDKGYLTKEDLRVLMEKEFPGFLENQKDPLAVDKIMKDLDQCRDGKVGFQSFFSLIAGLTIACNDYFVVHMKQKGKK
UniProt P03973, residues 26-132: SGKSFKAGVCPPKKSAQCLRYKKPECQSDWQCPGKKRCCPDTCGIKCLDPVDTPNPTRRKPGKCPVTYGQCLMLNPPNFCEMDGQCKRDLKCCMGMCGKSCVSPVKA

Molecular target: annexin A2 from macrophages (human (endogenous in monocyte-derived macrophages)) (UniProt P07355)
Assay: single molecule pulldown (SiMPull); macrophage lysates flowed onto slides coated with an anti-A2 capture antibody; complexes detected with mouse anti-S100A10 or anti-SLPI antibodies and 568-conjugated secondary antibody, TIRF microscopy

Row | Substance | binding
1 | S100A10 from macrophage lysate (from UniProt P60903 1-97) | binds
2 | secretory leukocyte protease inhibitor from macrophage lysate (from UniProt P03973 26-132) | binds
